Values of other authors as cited in patent publication US8834848B2, “Flow and volume regulated inhalation for treatment of severe oral corticosteroid-dependent asthma” (Activaero GmbH Research & Development, priority 2009, dated 2014).
At least one structure is not confirmed: it was looked up by name or label, or the drawing left a doubt.

Tested on: oral steroid-dependent asthma subjects
Settings: cited from earlier work

SMILES: CCCC1O[C@@H]2C[C@H]3[C@@H]4CCC5=CC(=O)C=C[C@]5(C)[C@H]4[C@@H](O)C[C@]3(C)[C@]2(C(=O)CO)O1 (some centres unmarked) [budesonide]
- mean annual number of asthma exacerbations requiring hospitalization (after treatment, reduced from 1.5): 0.9 per year
- subjects with steroid weaning (nominal 4-8 mg daily, conventional nebulizer, 12-18 months): 14 of the 18
